From PubChem BioAssay AID504327 (National Center for Advancing Translational Sciences (NCATS), 2011)
Values joined by “and” are separate entries in the source; they are usually repeats but may differ in a detail not shown here. Equal entries are not always repeated. Screen size: about 390,000 compounds; about 820 (0.21%) were called active. This list was built around the results that the source calls inconclusive (neither active nor inactive); the mix of calls is not that of the screen. Calls follow the shape of the dose curve; as a rule, active = well fitted inhibition curve with a large enough effect; inconclusive = small, poorly fitted or top-dose-only effect, or another doubt; inactive = no such curve, though single readings can be large or run the other way. Potencies beside an inconclusive call are fits to weak or partial responses and may not hold up.

By UniProt entry, the sequences of proteins in these tests, tags left out.
UniProt Q92830, whole entry, looked up: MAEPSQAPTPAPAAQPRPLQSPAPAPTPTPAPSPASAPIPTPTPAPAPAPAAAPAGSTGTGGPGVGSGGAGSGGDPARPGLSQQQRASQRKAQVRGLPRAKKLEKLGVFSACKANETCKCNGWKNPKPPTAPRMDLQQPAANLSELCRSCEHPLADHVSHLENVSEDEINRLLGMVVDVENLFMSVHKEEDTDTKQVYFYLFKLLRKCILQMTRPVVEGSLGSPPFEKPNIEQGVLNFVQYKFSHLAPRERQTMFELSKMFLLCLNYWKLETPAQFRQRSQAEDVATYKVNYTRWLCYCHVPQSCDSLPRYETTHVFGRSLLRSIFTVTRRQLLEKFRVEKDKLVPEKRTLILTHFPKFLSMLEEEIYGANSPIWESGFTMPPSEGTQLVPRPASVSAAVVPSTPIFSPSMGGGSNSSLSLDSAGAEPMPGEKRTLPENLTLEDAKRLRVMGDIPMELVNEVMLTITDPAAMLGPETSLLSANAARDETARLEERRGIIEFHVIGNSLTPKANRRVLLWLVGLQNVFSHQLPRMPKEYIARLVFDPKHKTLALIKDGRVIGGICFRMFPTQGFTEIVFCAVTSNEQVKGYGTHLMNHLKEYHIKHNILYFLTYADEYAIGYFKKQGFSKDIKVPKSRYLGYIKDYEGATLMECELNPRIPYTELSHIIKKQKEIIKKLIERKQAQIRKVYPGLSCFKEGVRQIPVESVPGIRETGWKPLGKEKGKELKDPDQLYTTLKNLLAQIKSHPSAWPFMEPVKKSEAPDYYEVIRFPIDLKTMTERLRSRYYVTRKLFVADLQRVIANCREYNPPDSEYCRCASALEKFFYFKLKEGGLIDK

Target: Histone acetyltransferase KAT2A (Homo sapiens) (UniProt Q92830)
Assay: qHTS Assay for Inhibitors of GCN5L2
Conditions: GCN5L2 HAT assay, ThioGlo1 CoA-SH fluorescence; activity change, negative = inhibition: at 58.9 µM (top of the series) unless noted
Summary of the method: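 Enzyme at 20nM final was mixed with library compounds for 15 min at room temperature. Peptide H3(1-25) at 75uM, acetyl-CoA at 70uM and ThioGlo1 at 50uM were then added. Plates were read immediately and after 20 min (Ex340nm/Em540nm).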
% is scaled to controls: 0 for no effect and ±100 for the full control effect; potency is read from the fitted curve at half-maximal effect.

Q: How did the Potency turn out when `COc1ccc(C(=O)N2CCN(c3cccc(Cl)c3)CC2)c(OC)c1` was run?
A: inactive

Q: Which Potency does the source give for `CCN(CC)C(=O)COC(=O)c1cc(-c2ccco2)nc2ccccc12` here?
A: inconclusive: 28.2 µM [inhibitor, partial curve]

Q: With `O=Cc1ccc(OCCCOc2cccc3cccnc23)cc1` as the molecule, how does the Potency read?
A: inactive

Q: For `Cc1ccc(OCC(O)Cn2c(NCCc3ccccc3)nc3c2c(=O)[nH]c(=O)n3C)cc1` (stereo not given), which Potency is on record?
A: inconclusive: 0.141 µM [inhibitor, full curve, poor fit]

Q: How did the Potency turn out when `Cc1ccc(CCN2CC(C(=O)NCc3ccco3)CC2=O)cc1` (stereo not given) was run?
A: inconclusive: 0.794 µM [inhibitor, single point]

Q: With `CCCCc1c(C)[nH]c(=S)[nH]c1=O` as the molecule, how does the Potency read?
A: inconclusive: 0.282 µM [inhibitor, full curve, poor fit]

Q: With `Cc1ccc(-n2ncc(C(=O)NCCc3ccsc3)c2C2CCN(C(=O)OC(C)(C)C)CC2)c(C)c1` as the molecule, how does the Potency read?
A: inconclusive: 7.08 µM [inhibitor, single point]

Q: Which Potency does the source give for `COC(=O)c1cc(CNC(=O)c2ccc(N3CCCC3)c([N+](=O)[O-])c2)ccc1OC` here?
A: inconclusive: 31.6 µM [inhibitor, single point]

Q: For `Cc1ccccc1NC(=O)C1CCN(C(=O)c2ccc(F)cc2)CC1`, which Potency is on record?
A: inactive

Q: Which Potency does the source give for `Cc1ccnn1CC(=O)N/N=C/c1ccco1` here?
A: inconclusive: 5.62 µM [inhibitor, single point]

Q: `CCOC(=O)Cn1nc(CC)c2ccccc2c1=O` was tested. Which Potency did it give?
A: inconclusive: 0.562 µM [inhibitor, single point]

Q: `Cc1cccc(OCCn2c(SCC(N)=O)nc3ccccc32)c1` was tested. Which Potency did it give?
A: inactive

Q: How did the Potency turn out when `COc1ccc(NC(=O)c2sc3nc(C)c(C(=O)Nc4ccc(C)cc4C)c(-c4sccc4C)c3c2N)cc1` was run?
A: inconclusive: 11.2 µM [inhibitor, partial curve]

Q: For `CC(=O)C1=C(c2ccccc2)NC(=O)NC1c1ccc(O)c(Cl)c1` (stereo not given), which Potency is on record?
A: inactive

Q: Which Potency does the source give for `CCOC(=O)c1cnc(Nc2ccccc2)nc1C(F)(F)F` here?
A: inconclusive: 7.08 µM [inhibitor, single point]

Q: Which Potency does the source give for `COc1ccccc1[C@@H]1C(c2cccc(C)c2)=NN(c2ccccc2)[C@H]1C(=O)N1CCOC1=O` here?
A: inconclusive: 31.6 µM [inhibitor, single point] and inconclusive: 25.1 µM [inhibitor, partial curve]

Q: For `CN(C)c1ccc(NC(=O)CN2C(=O)c3ccccc3C2=O)cc1`, which Potency is on record?
A: inconclusive: 0.398 µM [inhibitor, partial curve, poor fit]

Q: For `O=C1CCCCCN1Sc1ccccc1`, which Potency is on record?
A: inactive

Q: `CC(C)(C)c1ccc(C(=O)NC(=S)Nc2sc3c(c2C#N)CCC3)cc1` was tested. Which Potency did it give?
A: inconclusive: 39.8 µM [inhibitor, single point]

Q: Which Potency does the source give for `O=C(Oc1cccc(C(=S)N2CCOCC2)c1)c1cccc(Cl)c1` here?
A: inconclusive: 0.708 µM [inhibitor, single point]

Q: Which Potency does the source give for `Cc1nc2sc(C(c3ccc(F)cc3)N3CCOCC3)c(O)n2n1` (stereo not given) here?
A: inconclusive: 39.8 µM [inhibitor, single point]

Q: Which Potency does the source give for `Cc1ccc(S(=O)(=O)N2CCC(C(=O)NNC(=O)c3ccccc3O)CC2)cc1C` here?
A: inconclusive: 31.6 µM [inhibitor, single point]

Q: For `CC(C)[C@H](NC(=O)NC1CCCc2ccccc21)C(=O)O` (stereo not given in full), which Potency is on record?
A: inconclusive: 0.631 µM [inhibitor, single point]

Q: How did the Potency turn out when `COc1ccccc1C(=O)c1c(N)c(-c2nc(-c3ccccc3)cs2)c2ccccn12` was run?
A: inactive

Q: For `c1ccc(C2=Nn3c(nnc3-c3ccco3)SC2)cc1`, which Potency is on record?
A: inactive

Q: `Cc1cc(/C=C2\SC(=S)NC2=O)cc(C)c1O` was tested. Which Potency did it give?
A: inconclusive: 0.316 µM [inhibitor, full curve, poor fit]

Q: `CC1CCCC(NC(=O)COC(=O)[C@@H](NC(=O)c2ccc(F)cc2)C(C)C)C1C` (stereo not given in full) was tested. Which Potency did it give?
A: inactive

Q: With `COc1ccc(-c2nc3cnc(OCc4ccccc4)nc3n(CCC#N)c2=O)cc1` as the molecule, how does the Potency read?
A: inconclusive: 20 µM [inhibitor, partial curve]

Q: `S=c1[nH]nc(-c2ccco2)n1/N=C/c1ccc(Cl)cc1Cl` was tested. Which Potency did it give?
A: inconclusive: 1 µM [inhibitor, full curve, poor fit]

Q: With `O=C(O)c1cc(O)c2c(c1)[C@@H]([C@H]1c3cc(C(=O)O)cc(O)c3C(=O)c3c(O[C@@H]4O[C@H](CO)[C@@H](O)[C@H](O)[C@H]4O)cccc31)c1cccc(O[C@@H]3O[C@H](CO)[C@@H](O)[C@H](O)[C@H]3O)c1C2=O` as the molecule, how does the Potency read?
A: active: 0.631 µM

Q: Which Potency does the source give for `CN(C)c1ncc2nc(-c3ccc(Cl)cc3)c(=O)n(-c3ccccc3)c2n1` here?
A: inactive

Q: With `Cc1nn(CCCC(=O)NCc2cccc(F)c2)c(=O)c2nn(-c3ccccc3)c(C)c12` as the molecule, how does the Potency read?
A: inconclusive: 0.708 µM [inhibitor, single point]

Q: For `Cn1c(SCC(=O)NC2CCCC2)nc2c(c1=O)SCC2`, which Potency is on record?
A: inactive

Q: `O=c1c(-c2cccs2)nc2cnc(Oc3cccc(Cl)c3)nc2n1C[C@H]1CCCO1` was tested. Which Potency did it give?
A: inconclusive: 25.1 µM [inhibitor, single point]

Q: How did the Potency turn out when `NC12CC3CC(CC(C3)C1)C2` was run?
A: inconclusive: 39.8 µM [inhibitor, single point]

Q: `O=C(NN=Cc1c(O)ccc2ccccc12)c1ccc2c(c1)OCO2` was tested. Which Potency did it give?
A: inactive

Q: Which Potency does the source give for `Cc1nn(-c2ccc(C(F)(F)F)cn2)c(C)c1Oc1ccccc1O` here?
A: inconclusive: 39.8 µM [inhibitor, single point]

Q: How did the Potency turn out when `CSc1ccc(/C=N/n2c(C3CCCCC3)n[nH]c2=S)cc1` was run?
A: inactive

Q: `COc1ccc(NC(=O)CN2C(=O)S/C(=C/c3cccn3-c3ccc(C(=O)O)cc3)C2=O)cc1` was tested. Which Potency did it give?
A: inconclusive: 25.1 µM [inhibitor, partial curve]

Q: For `COc1ccc2c(c1)c1c(c(=O)n(-c3ccccc3)c(=O)n1CC(=O)Nc1ccc(F)cc1)n2C`, which Potency is on record?
A: inactive

Q: How did the Potency turn out when `COc1ccc(C2CC(c3ccccc3)=NN2c2ccc(Cl)c(C(=O)O)c2)cc1` (stereo not given) was run?
A: inconclusive: 28.2 µM [inhibitor, single point]

Q: For `Cc1c(-c2ccccc2)c(=O)oc2c(CN3CCN(C)CC3)c(O)ccc12`, which Potency is on record?
A: inconclusive: 28.2 µM [inhibitor, single point]

Q: With `CCCN1C=CC(=CC=C(C#N)C#N)C=C1` as the molecule, how does the Potency read?
A: inactive

Q: `CCc1ccc(Nc2nnc(SCC(=O)N(C)C3CCS(=O)(=O)C3)s2)cc1` (stereo not given) was tested. Which Potency did it give?
A: inconclusive: 35.5 µM [inhibitor, single point]

Q: How did the Potency turn out when `COCc1cc(C)nc(OCC(=O)N/N=C/c2ccc(O)cc2)c1C#N` was run?
A: inactive

Q: Which Potency does the source give for `Cc1ccccc1NC(=O)CN1C(=O)S/C(=C\c2cccn2-c2cccc(C(=O)O)c2)C1=O` here?
A: inactive

Q: How did the Potency turn out when `CCOC(=O)c1ccc2c(c1)N(Cc1cccc(C(F)(F)F)c1)C(=O)c1ccccc1S2(=O)=O` was run?
A: inactive

Q: `CCCCc1nc(NCCNC(=O)c2ccco2)c(C#N)c2c1CSC(C)(C)C2` was tested. Which Potency did it give?
A: inactive

Q: With `CSc1ccccc1NC(=O)c1cc(S(=O)(=O)N(C)C)ccc1N1CCCC1` as the molecule, how does the Potency read?
A: inconclusive: 6.31 µM [inhibitor, full curve]

Q: `CCN(CC)S(=O)(=O)c1ccc(OC)c(NC(=O)CCc2c(C)noc2C)c1` was tested. Which Potency did it give?
A: inconclusive: 39.8 µM [inhibitor, single point]

Q: Which Potency does the source give for `O=C(Nc1ccc2nc(SCC(=O)N3CCCc4ccccc43)sc2c1)c1cccc(Cl)c1` here?
A: inactive

Q: With `O=C(CSc1nnc(NC(=O)C2CC(=O)N(c3ccccc3)C2)s1)NCc1ccco1` (stereo not given) as the molecule, how does the Potency read?
A: inconclusive: 0.631 µM [inhibitor, full curve, poor fit]

Q: For `COc1cc(C(O)c2nc3ccccc3n2C)cc(OC)c1OC` (stereo not given), which Potency is on record?
A: inconclusive: 8.91 µM [inhibitor, single point]

Q: `Cc1cc(NC(=O)CN2CCN(c3ccccn3)CC2)ccc1Br` was tested. Which Potency did it give?
A: inconclusive: 3.16 µM [inhibitor, single point]

Q: Which Potency does the source give for `Cc1cc(NC(=O)CSc2nc(-c3ccccc3)nc3c2c(=O)n(C)c(=O)n3C)no1` here?
A: inconclusive: 39.8 µM [inhibitor, single point]

Q: How did the Potency turn out when `Nc1nc2nc(-c3ccc(F)cc3)cc(C(F)(F)F)n2n1` was run?
A: inconclusive: 39.8 µM [inhibitor, single point]

Q: `N#CC1=C(N)SC(N)=C(C#N)C1c1ccoc1` was tested. Which Potency did it give?
A: inconclusive: 22.4 µM [inhibitor, partial curve, poor fit]

Q: `O=C(/C=C/c1ccco1)Oc1cccc2cccnc12` was tested. Which Potency did it give?
A: inconclusive: 7.08 µM [inhibitor, single point]

Q: How did the Potency turn out when `Fc1ccc(COc2ccc(C(=S)N3CCCC3)cc2)cc1` was run?
A: inconclusive: 7.94 µM [inhibitor, partial curve]

Q: With `CCOC(=O)c1c(NC(=O)C2CCCCC2)sc2c1CCN(C(C)C)C2` as the molecule, how does the Potency read?
A: inconclusive: 0.708 µM [inhibitor, single point]

Q: How did the Potency turn out when `CCCCCCCCCCCCCCCC(=O)OC(CC(=O)O)C[N+](C)(C)C` (stereo not given) was run?
A: inactive

Q: With `O=C(NCCCn1ccnc1)c1cc2c(s1)CCCCC2` as the molecule, how does the Potency read?
A: inconclusive: 39.8 µM [inhibitor, single point]

Q: With `CN(C)C(=O)Nc1ccccc1` as the molecule, how does the Potency read?
A: inactive

Q: Which Potency does the source give for `Cc1onc(-c2ccc(Br)cc2)c1C(=O)Nc1ccc(Br)cc1F` here?
A: inactive

Q: For `CCOC(=O)c1scc(-c2ccc(C)cc2)c1S(=O)(=O)Nc1cccc(CC)c1`, which Potency is on record?
A: inconclusive: 5.01 µM [inhibitor, single point]

Q: For `CCCCCCNC(=O)CNC(=S)N(Cc1cccs1)C1CCCCC1`, which Potency is on record?
A: inactive

Q: With `COc1ccc(S(=O)(=O)Oc2ccc3c(c2)O/C(=C\c2cccnc2)C3=O)cc1` as the molecule, how does the activity change, negative = inhibition read?
A: inconclusive: -73.4% [inhibitor] [at 0.501 µM]

Q: With `Cc1c(C(=O)N2CCC(Cc3ccccc3)CC2)sc2ncnc(N3CCC(C)CC3)c12` as the molecule, how does the Potency read?
A: inactive

Q: `Cc1ccc(S(=O)(=O)c2c(C)nn(C(C)(C)C)c2OC(=O)CC(C)C)cc1` was tested. Which Potency did it give?
A: inactive

Q: Which Potency does the source give for `Cc1ccccc1OCCC(=O)OCC(=O)N1c2ccccc2NC(=O)C1(C)C` here?
A: inactive
